2 molecules from publication doi:10.1101/2022.11.09.515817 can be followed below.

Sequences of proteins named here, by UniProt entry; tags and fusion partners are left off.
UniProt Q8CFN5: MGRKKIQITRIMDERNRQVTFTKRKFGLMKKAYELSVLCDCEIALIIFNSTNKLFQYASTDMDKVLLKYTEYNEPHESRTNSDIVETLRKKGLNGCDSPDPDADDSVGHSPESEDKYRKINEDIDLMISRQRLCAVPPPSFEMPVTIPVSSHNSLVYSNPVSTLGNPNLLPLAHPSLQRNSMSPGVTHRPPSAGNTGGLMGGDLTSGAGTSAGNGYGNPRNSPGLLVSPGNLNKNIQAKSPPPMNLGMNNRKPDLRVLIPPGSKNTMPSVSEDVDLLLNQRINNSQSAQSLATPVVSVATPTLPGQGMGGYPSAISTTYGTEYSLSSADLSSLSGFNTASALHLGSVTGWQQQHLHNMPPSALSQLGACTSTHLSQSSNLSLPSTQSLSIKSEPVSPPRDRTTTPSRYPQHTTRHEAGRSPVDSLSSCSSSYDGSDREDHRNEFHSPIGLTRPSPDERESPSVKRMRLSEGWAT

For assay [1], the target named is Mef2c (mouse (endogenous in MLO-Y4)) (UniProt Q8CFN5). In words: co-IP.
Another assay concerns the target Flag-Mef2c (UniProt Q8CFN5). In words: co-IP.

These are yes or no findings as the source states them, for the method shown. In cells and extracts the contact can be indirect. Some entries that bind do so weakly or less than the wild type. For some assays here: Sequences can lack the tags named with a protein.

B1: vinculin (protein, UniProt Q64727 1-1066)
chain: MPVFHTRTIESILEPVAQQISHLVIMHEEGEVDGKAIPDLTAPVAAVQAAVSNLVRVGKETVQTTEDQILKRDMPPAFIKVENACTKLVQAAQMLQSDPYSVPARDYLIDGSRGILSGTSDLLLTFDEAEVRKIIRVCKGILEYLTVAEVVETMEDLVTYTKNLGPGMTKMAKMIDERQQELTHQEHRVMLVNSMNTVKELLPVLISAMKIFVTTKNSKNQGIEEALKNRNFTVEKMSAEINEIIRVLQLTSWDEDAWASKDTEAMKRALASIDSKLNQAKGWLRDPNASPGDAGEQAIRQILDEAGKVGELCAGKERREILGTCKMLGQMTDQVADLRARGQGASPVAMQKAQQVSQGLDVLTAKVENAARKLEAMTNSKQSIAKKIDAAQNWLADPNGGPEGEEQIRGALAEARKIAELCDDPKERDDILRSLGEIAALTSKLGDLRRQGKGDSPEARALAKQVATALQNLQTKTNRAVANSRPAKAAVHLEGKIEQAQRWIDNPTVDDRGVGQAAIRGLVAEGHRLANVMMGPYRQDLLAKCDRVDQLTAQLADLAARGEGESPQARALASQLQDSLKDLKAQMQEAMTQEVSDVFSDTTTPIKLLAVAATAPPDAPNREEVFDERAANFENHSGRLGATAEKAAAVGTANKSTVEGIQASVKTARELTPQVISAARILLRNPGNQAAYEHFETMKNQWIDNVEKMTGLVDEAIDTKSLLDASEEAIKKDLDKCKVAMANIQPQMLVAGATSIARRANRILLVAKREVENSEDPKFREAVKAASDELSKTISPMVMDAKAVAGNISDPGLQKSFLDSGYRILGAVAKVREAFQPQEPDFPPPPPDLEQLRLTDELAPPKPPLPEGEVPPPRPPPPEEKDEEFPEQKAGEVINQPMMMAARQLHDEARKWSSKGNDIIAAAKRMALLMAEMSRLVRGGSGTKRALIQCAKDIAKASDEVTRLAKEVAKQCTDKRIRTNLLQVCERIPTISTQLKILSTVKATMLGRTNISDEESEQATEMLVHNAQNLMQSVKETVREAEAASIKIRTDAGFTLRWVRKTPWYQ
On to B1, for which, in assay [1], the binding entry was “binds”.

B2: HA-vinculin (protein, UniProt Q64727 1-1066)
chain: B1 chain
Consider B2, for which the binding result in the assay with Flag-Mef2c is reported as “binds”.
